Data published in US7985832B2, “Antimicrobial cathelicidin peptides” (Kansas State University Research Foundation, priority 2005, dated 2011).
Part of at least one peptide drawing is inferred or uncertain, most often the ends. Ends that are not written are not given here.

Experiment: LPS binding, kinetic chromogenic Limulus amoebocyte lysate (LAL) assay
Design: species or system Escherichia coli

RLKELITTGGQKIGEKIRRIGQRIKDFFKNLQPREEKS [K9CATH]
Hill plot coefficient of LPS binding: 4.49 | EC50 (0.5 endotoxin units/mL LPS, 30 minutes at 37° C., read-out: concentration at 50% LPS binding): ~10.6 µM
